Test results: the supplement of paper PMC4683952
Some of the results follow. Rule as the data show it: active = 2 or more and inactive = the rest. Most values lie within the scatter of the assay; repeated measurements hardly agree.

Each molecule was assayed on Lgr5 (MarsCy1-Lgr5-EGFP, U2OS) (assay: cell-surface Lgr5 expression (SCi1 fluorescence, background-subtracted) relative to WT DMSO (fold of DMSO control); higher = more Lgr5 at the plasma membrane). Conditions: U2OS MarsCy1-Lgr5-EGFP stable; treatment time: overnight; library: ActiProbe-5K (TimTec); 25 µM.

cell-surface Lgr5 expression, inactive:
CN(C)CCCC1(c2ccc(F)cc2)OCc2cc(C#N)ccc21 (stereo not drawn) 1.39, O=C(Nc1ccc2c(c1)OC1(CCCCC1)O2)C1CCC(=O)N1C(=O)C1CCCN1 (stereo not drawn) 1.14, N#CCSc1sc2c(O)cc(=O)[nH]c2c1C#N 1.35, s1cc(nc1/N=C(\N)N)CS(N)=N.Cl (stereo not drawn) 1.21, Brc1ccccc1-c1nnc(C(c2ccccc2)c2ccccc2)o1 0.986, Cc1nnc(SCC(=O)Nc2nccs2)s1 1.15, Fc1ccc(CSc2nc(SCc3ccc(F)cc3)nc(SCc3ccc(F)cc3)n2)cc1 1.12, N#CCN(CC#N)S(=O)(=O)c1ccc(Br)cc1 1.02, CCCCc1c(C)nc(N/N=C/c2ccco2)nc1O 1.81, N#CCSc1nsc2sc(C#N)c(N)c12 1.11, [O-][n+]1onc2c1CCc1c-2nc(-c2ccco2)n1O 1.38, N#Cc1ncc(Br)cn1 1.64, Cn1c(=S)n(CN2CCOCC2)c2ccccc21 1.26, O=S(=O)(NC1CC1)c1ccc(OCCn2cnnn2)cc1 0.999, O=C1c2ccccc2C(O)(O)C1(O)C1(O)C(=O)c2ccccc2C1(O)O (stereo not drawn) 1.26, CC(C)(C)[C@@H]1CCCC[C@H]1N 0.971, O=C(O)/C=C\C(=O)NNC(=O)C1CCCCC1 1.27, O=c1c2c3c(sc2nc(S)n1C1CCCCC1)CCCC3 0.654, C=C(C)C#CCN1CCCCC1 1.05, CS(=O)(=O)c1ccc2nc(NS(=O)(=O)c3ccccc3)sc2c1 1.03, Cl.c1ccc(CNc2nc(NCc3ccccc3)c3ccccc3n2)cc1 0.52, O=[N+]([O-])c1ccc2c(c1)CSc1nc3ccccc3n1-2 1.45, CCN1C(=O)/C(=C2\SC(=S)N(C3CCS(=O)(=O)C3)C2=O)c2ccccc21 (stereo not drawn) 1.82, Cc1ccc(/C=N/n2c(S)nnc2-c2ccco2)o1 1.09, CCOC(=O)c1sc(N2N=C(C)/C(=C/c3cccs3)C2=O)nc1C 1.04, COc1cc(/C=N/n2c(S)nnc2-c2cc(OC)c(OC)c(OC)c2)cc(OC)c1OC 1.35, Cc1nc2nc(S(=O)(=O)N(CC(C)C)CC(C)C)nn2c(C)c1C 1.22, O=S(=O)(Nc1ccc(F)c(F)c1)c1ccc(Cl)s1 1.18, O=C(N/N=C/C=C\c1ccco1)c1cccs1 1.04, O=C(CCCCCCCC(=O)N/N=C/c1cc(Br)cs1)N/N=C\c1cc(Br)cs1 1.06, COc1ccc(NS(C)(=O)=O)c(OC)c1 0.981, C=CCSc1nc2c(cc1C#N)CCC2 1.28, Cn1c(=O)n(C)c2c(=O)[nH]ccc21 1.29, CSc1nsc(N)n1 1.44, O=c1cc(O)c2sc3[nH]c(=O)c([N+](=O)[O-])cc3c2[nH]1 0.851, CC(=O)CC(=O)c1cccs1 1.12, C1(/C(OC(OC1=O)(C)C)=O)=C1/NCCCCC1 1.28, O=C(O)c1[nH]nc([N+](=O)[O-])c1Br 1.12, Cc1cc2c(cc1Br)NC(=O)/C2=N/O 0.78, CN(C)c1ccc(O)o1.Cl 1.22, CC(=O)OCCC(O)C1=CCC2C3CC=C4CC(OC(C)=O)CCC4(C)C3CCC12C (stereo not drawn) 1.66, Cn1cc(-c2n[nH]cc2Cl)cn1 0.922, CC(C)Cc1nnc(NC(=O)CC(C)(C)C)s1 1.15, CSc1nc2nnc(-c3nc4ccccc4[nH]3)c(N)n2n1 1.09, O=c1cc(-c2cc(Cl)cc3c2OCOC3)oc2ccc(Cl)cc12 1.17, O=C(CN1CCCC1)Nc1nc2c(s1)C(=O)CC(O)(O)C2 0.995, O=c1[nH]cnc2c1oc1ccc(Br)cc12 1.27, O=C(NC1CCCCCC1)N1CCOCC1 1.02, COc1ccc(C2CS(=O)(=O)CS(=O)(=O)C2)cc1OC 1.2, O=[N+]([O-])c1ccc(Cl)c(/C=N\c2ccc(Cl)c([N+](=O)[O-])c2)c1 1.89, CC1(C)CCCC(C)(C#CCN2CCN(CCO)CC2)O1 (stereo not drawn) 1.31, Clc1cccc2c3c([nH]c12)CCNC3 1.29, Cc1sc(NC(=O)C2CCCO2)c(C(N)=O)c1C (stereo not drawn) 1.43, O=c1[nH]nc(S)n1C1CCCCC1 1.09, S=C(Nc1ccccc1)Nc1cc(Cl)c(Cl)cc1Cl 1.04, Nc1c(N)c(N)c(N)c(N)c1N 1.13, CN1C(=O)/C(=C2\SC(=S)N(CC3CCCO3)C2=O)c2cc(Br)ccc21 (stereo not drawn) 1.29, Cc1ccccc1-c1nn2c(-c3n[nH]c4c3CCC4)nnc2s1 1.23, Oc1[nH]c2ccc(Br)cc2c1OCc1ccncc1 1.07, Fc1ccc(-c2cc(C(F)(F)C(F)F)[nH]n2)cc1 0.867, Cc1ccc(C(C2=C(O)CC(C)(C)CC2=O)C2C(=O)CC(C)(C)CC2=O)o1 (stereo not drawn) 1.16, CC(C)CNc1ncnc2sc3c(c12)CCCC3 1.26, O=[N+]([O-])c1ccc2nc(O)cnc2c1 1.03, c1ccc(CCn2c(-c3ccccc3)cs/c2=N/c2ccccc2)cc1 0.86, OC1CC(C(F)(F)F)Oc2ccc(Cl)cc21 (stereo not drawn) 1.48, Cc1cc(=O)[nH]c2c1c(O)nn2C1CCCCC1 1.33, Nn1c(S)nnc1C(O)c1ccccc1 (stereo not drawn) 1.04, Cc1cc(O)nc(SCc2ccon2)n1 1.1, O=c1nc(C(F)(F)F)cc(/C=C\c2c[nH]nc2-c2cccs2)[nH]1 0.933, O=C1C=CC(=O)N1SSN1C(=O)C=CC1=O 0.303, CC(=O)NC/C(C)=N/NC(=O)OC(C)(C)C 1.22, CCNC(=S)Nc1n[nH]c2nc(Cl)cc(C)c12 0.971, O=C([O-])CCCc1c[nH]c2ccccc12.[K+] 1.06, O=C1/C(=C\C2CCCO2)CC/C1=C\C1CCCO1 (stereo not drawn) 1.35, Cn1ncc(Cl)c1C(=O)NCCCn1cc(Br)cn1 1.12, CCCc1cc(=O)nc(SCC(N)=O)[nH]1 0.968, Cc1noc2c1/C(=N/O)CC(C)(C)C2 1.43, N#Cc1c(SCC(=O)NC23CC4CC(CC(C4)C2)C3)sc2c(O)cc(=O)[nH]c12 1.3, Sc1nnc(COc2cccc3ccccc23)n1-c1ccccc1 1.08, Cl/C=C/COc1ccc(Cl)cc1 1.1, CCCCOCC(O)CN1CCCCC1 (stereo not drawn) 0.949, COc1ccc(OC)c(C2=Nn3c(nnc3-c3ccccc3F)SC2)c1 1.04, CC1=C(C(=O)OCC2CCCO2)C(c2ccc(C)o2)C2=C(CC(C)(C)CC2=O)N1 (stereo not drawn) 1.11, CS(=O)(=O)N1CCN(c2ccc(F)cc2)CC1 0.943, CCC(=O)c1c(N)cc(C)oc1=O 1.07, CN1C(=O)C(CCC(N)=O)NC1=S (stereo not drawn) 1.03, Nc1ncnc2[nH]c(Sc3ncnc4ccccc34)nc12 1.13, Cl.c1ccc(CC2=NCCN2)cc1 0.861, FC(F)(F)c1ccccc1/C=N\N1CCN(C2c3ccccc3-c3ccccc32)CC1 1.41, Clc1ccc(N=Cc2ccc(Br)o2)cc1 1.07, CC1=C(C#N)c2nc(N)c(C#N)c(C)c2/C1=C/c1cccs1 1.55, c1ccc([C@H]2[C@H](C(c3cc(C(F)(F)F)ccc3)=O)N3[C@H]([C@@]2(C#N)C#N)(c2c(C=C3)cccc2))cc1 1.67, O=S(=O)(c1cccc2ccccc12)n1cnc2ccccc21 0.992, Cn1c(=O)c2c(nc(SCC(=O)NC(C)(C)C)n2C)n(C)c1=O 1.12, NNc1ccc(OC(F)(F)F)cc1 1.05, C(#N)C(=C1\CCOCC1)/C#N 1.31, Cc1cc(/C=N\NC(N)=S)c(C)n1-c1sc2c(c1C#N)CCCC2 1.13, C/C(=N/NC(=O)Cc1cc(=O)[nH][nH]1)c1cccs1 0.982, CCCN1CN(Cc2ccco2)CNC1=S 1.26, Nc1ccc(S(=O)(=O)Nc2ccc(S(N)(=O)=O)cc2)cc1 1.11, C/C(=N\NC(=O)c1ccco1)c1ccco1 1.16, CC(=O)N1CCC2(CC1)C1CN(C(C)=O)CC=C1C(C#N)=C(N)C2(C#N)C#N (stereo not drawn) 1.1, Cc1c(-c2ccno2)cnn1C 1.22, CC(C)(C)Sc1c(Br)cccc1Br 1.02, Oc1cccc2ccc(Cl)nc12 1.12, CN(C)S(=O)(=O)NCc1ccc2c(c1)OCO2 0.939, O=c1nc(N/N=C\c2cccnc2)cn[nH]1 1.3, Cc1cc(C)c2c(O)nn(C(C)C)c2n1 1.27
